Results on one substance are retold here after publication PMC7762460.

Chains of the proteins cited; added tags and fusions are not shown.
UniProt Q13485: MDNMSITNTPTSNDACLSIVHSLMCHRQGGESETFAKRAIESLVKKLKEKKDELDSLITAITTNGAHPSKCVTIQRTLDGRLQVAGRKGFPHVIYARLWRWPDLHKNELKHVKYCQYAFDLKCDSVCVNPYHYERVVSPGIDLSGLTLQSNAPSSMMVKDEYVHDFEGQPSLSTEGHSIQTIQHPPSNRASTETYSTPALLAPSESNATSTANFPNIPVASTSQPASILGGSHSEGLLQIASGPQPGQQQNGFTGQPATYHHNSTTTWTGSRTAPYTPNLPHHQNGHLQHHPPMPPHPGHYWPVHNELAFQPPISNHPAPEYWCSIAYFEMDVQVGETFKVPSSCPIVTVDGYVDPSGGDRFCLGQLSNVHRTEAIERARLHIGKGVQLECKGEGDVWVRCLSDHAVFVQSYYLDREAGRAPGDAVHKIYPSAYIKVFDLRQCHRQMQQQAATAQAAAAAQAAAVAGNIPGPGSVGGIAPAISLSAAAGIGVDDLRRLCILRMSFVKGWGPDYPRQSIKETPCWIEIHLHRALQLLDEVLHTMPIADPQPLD
UniProt O43294: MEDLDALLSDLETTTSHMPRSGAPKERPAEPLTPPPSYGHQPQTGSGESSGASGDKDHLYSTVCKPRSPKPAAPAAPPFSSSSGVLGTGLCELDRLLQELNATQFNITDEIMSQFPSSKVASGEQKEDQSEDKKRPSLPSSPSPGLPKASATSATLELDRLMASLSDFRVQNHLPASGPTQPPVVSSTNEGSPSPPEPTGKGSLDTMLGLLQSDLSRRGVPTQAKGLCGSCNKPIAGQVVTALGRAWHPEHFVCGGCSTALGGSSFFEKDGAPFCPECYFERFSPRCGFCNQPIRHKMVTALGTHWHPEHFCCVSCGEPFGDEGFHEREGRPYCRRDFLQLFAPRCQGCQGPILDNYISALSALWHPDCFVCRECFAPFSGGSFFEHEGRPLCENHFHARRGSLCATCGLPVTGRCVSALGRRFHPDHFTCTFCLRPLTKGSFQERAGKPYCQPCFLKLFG

In this test the target is smad4 (UniProt Q13485). The experiment in a line: co-IP; whole cell extract (400 mM KCl, 10 mM Na2HPO4, 1 mM EDTA, 1 mM DTT, 10% glycerol, 0.5% NP-40); appropriate antibodies and protein G Sepharose beads overnight at 4 °C; Western blot; which protein was precipitated not given. On the technique in general: In western blotting, separated proteins are transferred to a membrane and probed.

These are yes or no findings as the source states them, for the method shown. Binding seen in cells or lysates may run through a third protein. Some binding calls cover weakened binding; strength is not graded here.

As to “Hic-5 (hydrogen peroxide inducible clone 5) (from UniProt O43294 1-461)”, the binding result is reported as “binds”.
